This is an account of results in publication PMC11376556.

Chains of the proteins cited; added tags and fusions are not shown.
UniProt P15864: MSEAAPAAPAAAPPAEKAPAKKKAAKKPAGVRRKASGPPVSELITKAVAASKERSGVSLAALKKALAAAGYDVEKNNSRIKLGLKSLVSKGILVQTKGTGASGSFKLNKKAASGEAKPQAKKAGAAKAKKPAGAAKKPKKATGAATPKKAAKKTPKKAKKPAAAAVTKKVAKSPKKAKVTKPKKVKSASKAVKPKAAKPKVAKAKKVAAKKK
UniProt Q61221: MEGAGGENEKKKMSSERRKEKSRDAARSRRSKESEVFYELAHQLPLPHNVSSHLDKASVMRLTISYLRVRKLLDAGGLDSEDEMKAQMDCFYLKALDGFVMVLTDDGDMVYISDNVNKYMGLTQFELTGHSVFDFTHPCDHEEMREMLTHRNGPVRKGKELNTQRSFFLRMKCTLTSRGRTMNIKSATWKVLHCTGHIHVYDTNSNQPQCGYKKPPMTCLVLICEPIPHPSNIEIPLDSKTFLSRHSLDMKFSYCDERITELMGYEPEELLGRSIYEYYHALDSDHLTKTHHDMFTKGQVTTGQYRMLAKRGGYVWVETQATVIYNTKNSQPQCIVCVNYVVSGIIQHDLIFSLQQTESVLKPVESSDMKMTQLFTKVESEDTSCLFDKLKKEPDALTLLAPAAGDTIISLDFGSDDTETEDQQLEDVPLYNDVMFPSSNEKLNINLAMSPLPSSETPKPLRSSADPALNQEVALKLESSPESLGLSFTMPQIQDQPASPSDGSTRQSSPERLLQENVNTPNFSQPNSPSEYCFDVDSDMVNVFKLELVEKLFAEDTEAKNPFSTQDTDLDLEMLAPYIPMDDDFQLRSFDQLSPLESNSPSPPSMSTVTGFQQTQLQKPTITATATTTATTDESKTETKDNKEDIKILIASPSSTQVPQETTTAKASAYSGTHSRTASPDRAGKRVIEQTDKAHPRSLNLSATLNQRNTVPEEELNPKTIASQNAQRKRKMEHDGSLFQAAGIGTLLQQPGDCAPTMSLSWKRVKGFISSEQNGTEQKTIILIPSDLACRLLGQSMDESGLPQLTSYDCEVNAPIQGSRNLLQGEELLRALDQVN
UniProt P11103: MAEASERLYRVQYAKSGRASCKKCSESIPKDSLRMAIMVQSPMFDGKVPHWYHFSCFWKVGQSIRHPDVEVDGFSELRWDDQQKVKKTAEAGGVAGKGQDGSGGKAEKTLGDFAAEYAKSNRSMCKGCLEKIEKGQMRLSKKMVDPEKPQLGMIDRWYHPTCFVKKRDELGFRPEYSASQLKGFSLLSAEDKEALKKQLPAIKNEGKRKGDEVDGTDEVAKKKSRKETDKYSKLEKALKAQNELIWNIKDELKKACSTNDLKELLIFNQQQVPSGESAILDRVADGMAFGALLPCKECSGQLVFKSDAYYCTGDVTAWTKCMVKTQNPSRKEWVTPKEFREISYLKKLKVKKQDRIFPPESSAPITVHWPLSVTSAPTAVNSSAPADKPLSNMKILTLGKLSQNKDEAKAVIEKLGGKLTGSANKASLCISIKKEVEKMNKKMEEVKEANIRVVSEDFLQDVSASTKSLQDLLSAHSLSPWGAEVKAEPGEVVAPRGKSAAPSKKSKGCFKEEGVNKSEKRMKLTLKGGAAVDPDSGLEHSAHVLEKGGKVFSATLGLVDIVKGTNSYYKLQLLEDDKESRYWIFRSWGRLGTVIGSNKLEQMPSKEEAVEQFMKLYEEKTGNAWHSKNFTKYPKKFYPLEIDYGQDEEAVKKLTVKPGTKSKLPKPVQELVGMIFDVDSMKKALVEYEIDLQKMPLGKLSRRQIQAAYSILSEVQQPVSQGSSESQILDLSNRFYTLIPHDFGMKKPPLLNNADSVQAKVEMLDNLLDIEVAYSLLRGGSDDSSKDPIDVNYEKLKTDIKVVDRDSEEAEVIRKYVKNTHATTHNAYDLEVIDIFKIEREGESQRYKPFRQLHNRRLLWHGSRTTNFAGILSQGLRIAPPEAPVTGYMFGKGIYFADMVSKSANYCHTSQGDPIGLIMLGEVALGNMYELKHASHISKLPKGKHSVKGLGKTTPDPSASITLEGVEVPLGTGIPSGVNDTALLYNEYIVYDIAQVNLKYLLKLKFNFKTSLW
UniProt P53762: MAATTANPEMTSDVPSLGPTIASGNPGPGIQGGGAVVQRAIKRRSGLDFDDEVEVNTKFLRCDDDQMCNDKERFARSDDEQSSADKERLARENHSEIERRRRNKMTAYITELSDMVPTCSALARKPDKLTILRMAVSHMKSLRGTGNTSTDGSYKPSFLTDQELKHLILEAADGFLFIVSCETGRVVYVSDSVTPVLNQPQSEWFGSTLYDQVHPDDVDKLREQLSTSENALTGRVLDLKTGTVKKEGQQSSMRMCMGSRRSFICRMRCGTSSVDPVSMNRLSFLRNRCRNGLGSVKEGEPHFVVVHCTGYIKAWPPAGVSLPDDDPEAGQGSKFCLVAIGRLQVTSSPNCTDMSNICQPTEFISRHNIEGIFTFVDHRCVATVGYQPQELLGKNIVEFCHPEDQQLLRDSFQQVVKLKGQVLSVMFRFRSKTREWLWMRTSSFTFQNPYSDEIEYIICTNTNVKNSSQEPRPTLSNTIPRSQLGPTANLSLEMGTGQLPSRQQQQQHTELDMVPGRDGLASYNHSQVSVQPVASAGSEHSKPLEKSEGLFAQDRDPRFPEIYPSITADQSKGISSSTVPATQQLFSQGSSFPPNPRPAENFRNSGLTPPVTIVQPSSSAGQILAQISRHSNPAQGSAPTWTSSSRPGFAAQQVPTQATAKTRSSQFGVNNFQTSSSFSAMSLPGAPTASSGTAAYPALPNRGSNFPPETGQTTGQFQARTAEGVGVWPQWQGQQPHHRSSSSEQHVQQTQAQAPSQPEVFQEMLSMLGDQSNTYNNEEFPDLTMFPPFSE

These are yes or no findings as the source states them, for the method shown. Binding seen in cells or lysates may run through a third protein. Some entries that bind do so weakly or less than the wild type. For some of these results: Tags and fused reporters may be left off the sequences shown.

Assay [1] concerns the target GFP-tagged histone H1.2 (mouse HIST1H1C cDNA in pEGFP-N1) (mouse) (UniProt P15864). The experiment in a line: co-IP; HEK293T cells transfected with pEGFP-N1-H1.2 (pEGFP-N1 as control); IP lysis solution 50 mM Tris-HCl, 150 mM NaCl, 1% Triton-100, 1 mM EDTA, pH 7.5; anti-GFP beads 3 h at 4°C; washed with PBST; western blot. A general note: Immunoblotting shows a protein as a band on a membrane.

Assay [2] addresses MYC-HIF-1α (mouse cDNA in pCSII-MT) (mouse) (UniProt Q61221). Nature of the assay: co-IP; MYC-HIF-1α, FLAG-HIF-1β with or without GFP-H1.2 in HEK293T cells; also with Acriflavine (ACF) or TAT-cyclo-CLLFVY; H1.2 enhanced the co-precipitate and reduced the inhibition by ACF and TAT.

On to “PARP1 (mouse cDNA in PRK-flag) (from UniProt P11103 1-1013) (enzyme)”, for which, in assay [1], the binding entry is given as “binds”. FLAG-HIF-1β (from UniProt P53762 1-791): the binding result in assay [2] is listed as “binds”; in assay [1], “no binding”.

B1: RBM39 (mouse cDNA in PRK-flag) (protein, UniProt Q8VH51 1-530)
chain: MADDIDIEAMLEAPYKKDENKLNSANGHEERSKKRKKSKSRSRSHERKRSKSKERKRSRDRERKKSKSRERKRSRSKERRRSRSRSRDRRFRGRYRSPYSGPKFNSAIRGKIGLPHSIKLSRRRSRSKSPFRKDKSPVREPIDNLTPEERDARTVFCMQLAARIRPRDLEEFFSTVGKVRDVRMISDRNSRRSKGIAYVEFVDVSSVPLAIGLTGQRVLGVPIIVQASQAEKNRAAAMANNLQKGSAGPMRLYVGSLHFNITEDMLRGIFEPFGRIESIQLMMDSETGRSKGYGFITFSDSECAKKALEQLNGFELAGRPMKVGHVTERTDASSASSFLDSDELERTGIDLGTTGRLQLMARLAEGTGLQIPPAAQQALQMSGSLAFGAVAEFSFVIDLQTRLSQQTEASALAAAASVQPLATQCFQLSNMFNPQTEEEVGWDTEIKDDVIEECNKHGGVIHIYVDKNSAQGNVYVKCPSIAAAIAAVNALHGRWFAGKMITAAYVPLPTYHNLFPDSMTATQLLVPSRR
As for B1, the binding result in assay [1] is on record as “binds”.
